Laboratory results: PubChem BioAssay AID1259308 (NCATS, 2017)
The whole screen tested about 59,000 reagents; shown is a part drawn at random. About 1,510 of all reagents (2.6%) count as active. 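Calls use total luciferase alone and ignore viability, so some active siRNAs may act by altering cell number.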 A number with no mark means an inactive call. Not all columns of the deposit are shown. Reagent sequences are not shown.

- Test: 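Candidate targets for better recombinant protein yield in mammalian cells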 (primary screen)
- System: human HEK293 embryonic kidney cells stably expressing firefly luciferase (HEK-CMV-Luc2-Hygro)
- Knock-down reagent: single siRNA against human genes, 0.8 pmol siRNA per well
- Time to read-out: 72 h
- Measurement: 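Reporter luminescence and viable-cell signal on separate replicate plates, given as percent of non-targeting control and median/MAD z-scores, plus per-cell luciferase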
- Direction: total luciferase, z-score and total luciferase, % of control: higher = more reporter protein produced; luciferase per cell, z-score: higher = more reporter output per viable cell
- Active means: 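Active when the median/MAD z-score for overall luciferase is greater than 3; a gene was taken forward for validation with new siRNAs if at least two of its three siRNAs passed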
- Calls: active = raised luciferase; inactive = no rise

gene | PubChem SID | total luciferase, z-score | total luciferase, % of control | luciferase per cell, z-score
IMP3 (IMP U3 small nucleolar ribonucleoprotein 3) | SID160743397 | -0.779 | 66.4 | -0.314
IMP3 (IMP U3 small nucleolar ribonucleoprotein 3) | SID160743398 | -0.196 | 78 | -0.763
IMP3 (IMP U3 small nucleolar ribonucleoprotein 3) | SID160743399 | -0.855 | 64.9 | -0.896
MEX3B (mex-3 RNA binding family member B) | SID160751884 | 0.792 | 97.6 | -0.105
MEX3B (mex-3 RNA binding family member B) | SID160751885 | -1.02 | 61.5 | -1.5
MEX3B (mex-3 RNA binding family member B) | SID160751886 | 1.22 | 106 | 0.118
ARG1 (arginase 1) | SID160719691 | 0.85 | 98.8 | 0.308
ARG1 (arginase 1) | SID160719702 | 0.794 | 97.7 | 0.176
ARG1 (arginase 1) | SID160719714 | -1.56 | 50.8 | -1.6
TDRD12 (tudor domain containing 12) | SID160754040 | -0.554 | 70.9 | 0.298
TDRD12 (tudor domain containing 12) | SID160754041 | 0.525 | 92.3 | 1.24
TDRD12 (tudor domain containing 12) | SID160754042 | -1.16 | 58.8 | -0.665
SPAG8 (sperm associated antigen 8) | SID160737763 | 1.65 | 115 | 0.991
SPAG8 (sperm associated antigen 8) | SID160737765 | -0.239 | 77.1 | -0.185
SPAG8 (sperm associated antigen 8) | SID160737766 | 1.08 | 103 | 0.605
CRYBG2 (crystallin beta-gamma domain containing 2) | SID160742837 | -0.396 | 74 | 0.296
CRYBG2 (crystallin beta-gamma domain containing 2) | SID160742838 | 0.348 | 88.8 | 0.297
CRYBG2 (crystallin beta-gamma domain containing 2) | SID160742839 | 0.136 | 84.6 | -0.244
CDH4 (cadherin 4) | SID160740418 | -1.18 | 58.4 | -1.1
CDH4 (cadherin 4) | SID160740427 | 3.27 (active) | 147 | 2.1
CDH4 (cadherin 4) | SID160740438 | 0.254 | 86.9 | -0.136
ZSWIM4 (zinc finger SWIM-type containing 4) | SID160748299 | 1.16 | 105 | 1.99
ZSWIM4 (zinc finger SWIM-type containing 4) | SID160748300 | 0.444 | 90.7 | 0.364
ZSWIM4 (zinc finger SWIM-type containing 4) | SID160748302 | 0.862 | 99 | 0.249
MYBPH (myosin binding protein H) | SID160777625 | -1.33 | 55.5 | -0.76
MYBPH (myosin binding protein H) | SID160777626 | -0.299 | 75.9 | -0.843
MYBPH (myosin binding protein H) | SID160777627 | 0.849 | 98.8 | 0.553
RAB28 (RAB28, member RAS oncogene family) | SID160722040 | -0.0525 | 80.8 | -0.0151
RAB28 (RAB28, member RAS oncogene family) | SID160722041 | 2.26 | 127 | 1.46
RAB28 (RAB28, member RAS oncogene family) | SID160722042 | 1.55 | 113 | 0.688
CES5AP1 (carboxylesterase 5A pseudogene 1) | SID160770403 | 0.526 | 92.3 | 0.854
CES5AP1 (carboxylesterase 5A pseudogene 1) | SID160770404 | 0.522 | 92.3 | 1.42
CES5AP1 (carboxylesterase 5A pseudogene 1) | SID160770405 | 0.819 | 98.2 | 0.344
NIBAN1 (niban apoptosis regulator 1) | SID160755440 | 1.53 | 112 | 2.54
NIBAN1 (niban apoptosis regulator 1) | SID160755442 | 1.28 | 107 | 0.74
NIBAN1 (niban apoptosis regulator 1) | SID160755443 | -0.377 | 74.4 | -0.762
SULT1C4 (sulfotransferase family 1C member 4) | SID160738563 | 1.2 | 106 | 0.714
SULT1C4 (sulfotransferase family 1C member 4) | SID160738564 | -1.25 | 57 | -1.15
SULT1C4 (sulfotransferase family 1C member 4) | SID160738565 | 1.77 | 117 | 1.93
CLDN20 (claudin 20) | SID160739590 | -0.697 | 68 | -0.277
CLDN20 (claudin 20) | SID160739592 | 1.89 | 119 | 1.99
CLDN20 (claudin 20) | SID160739593 | -0.453 | 72.9 | 0.192
COL22A1 (collagen type XXII alpha 1 chain) | SID160760331 | 0.477 | 91.4 | -0.245
COL22A1 (collagen type XXII alpha 1 chain) | SID160760332 | -1.13 | 59.3 | -0.134
COL22A1 (collagen type XXII alpha 1 chain) | SID160760333 | 3.02 (active) | 142 | 2.37
BRS3 (bombesin receptor subtype 3) | SID160728976 | 0.154 | 85 | -0.0411
BRS3 (bombesin receptor subtype 3) | SID160728986 | -0.571 | 70.5 | -0.568
BRS3 (bombesin receptor subtype 3) | SID160728997 | -1.21 | 57.8 | -1.37
GATM (glycine amidinotransferase) | SID160769588 | -1.57 | 50.6 | -1.76
GATM (glycine amidinotransferase) | SID160769598 | 0.145 | 84.8 | -0.445
GATM (glycine amidinotransferase) | SID160769606 | -1.43 | 53.4 | -1.11
ZNF837 (zinc finger protein 837) | SID160732356 | 0.454 | 90.9 | 0.145
ZNF837 (zinc finger protein 837) | SID160755411 | 0.549 | 92.8 | 0.67
ZNF837 (zinc finger protein 837) | SID160755412 | 0.68 | 95.4 | 0.387
GAS8-AS1 (GAS8 antisense RNA 1) | SID160723687 | 0.434 | 90.5 | 2.03
GAS8-AS1 (GAS8 antisense RNA 1) | SID160730330 | 0.482 | 91.5 | 0.616
GAS8-AS1 (GAS8 antisense RNA 1) | SID160734907 | -0.13 | 79.3 | 0.445
C1orf87 (chromosome 1 open reading frame 87) | SID160756676 | 0.124 | 84.3 | 0.0194
C1orf87 (chromosome 1 open reading frame 87) | SID160756677 | -0.633 | 69.3 | -0.693
C1orf87 (chromosome 1 open reading frame 87) | SID160756678 | -0.289 | 76.1 | -0.851
DHX33 (DEAH-box helicase 33) | SID160731569 | -0.967 | 62.6 | -0.12
DHX33 (DEAH-box helicase 33) | SID160745297 | 0.228 | 86.4 | 4.02
DHX33 (DEAH-box helicase 33) | SID160745298 | 0.474 | 91.3 | 2.76
TRIM35 (tripartite motif containing 35) | SID160735416 | 2.89 | 139 | 1.76
TRIM35 (tripartite motif containing 35) | SID160735417 | -1.74 | 47.3 | 0.051
TRIM35 (tripartite motif containing 35) | SID160735418 | -0.601 | 69.9 | -0.908
KRT75 (keratin 75) | SID160721511 | -0.217 | 77.6 | -0.43
KRT75 (keratin 75) | SID160721512 | 1.47 | 111 | 1.38
KRT75 (keratin 75) | SID160732137 | -0.197 | 78 | -0.742
GOLGA8G (golgin A8 family member G) | SID160763035 | 0.678 | 95.4 | 0.965
GOLGA8G (golgin A8 family member G) | SID160763036 | -0.244 | 77 | 0.724
GOLGA8G (golgin A8 family member G) | SID160763037 | -0.76 | 66.8 | -0.63
KCNQ4 (potassium voltage-gated channel subfamily Q member 4) | SID160721550 | -1.08 | 60.3 | -1.89
KCNQ4 (potassium voltage-gated channel subfamily Q member 4) | SID160721551 | 0.241 | 86.7 | 0.723
KCNQ4 (potassium voltage-gated channel subfamily Q member 4) | SID160721552 | 0.308 | 88 | 0.116

11 entries from above, reformatted:
gene,PubChem SID,"total luciferase, z-score","total luciferase, % of control","luciferase per cell, z-score"
DHX33 (DEAH-box helicase 33),SID160745297,0.228,86.4,4.02
DHX33 (DEAH-box helicase 33),SID160745298,0.474,91.3,2.76
TRIM35 (tripartite motif containing 35),SID160735416,2.89,139,1.76
TRIM35 (tripartite motif containing 35),SID160735417,-1.74,47.3,0.051
TRIM35 (tripartite motif containing 35),SID160735418,-0.601,69.9,-0.908
KRT75 (keratin 75),SID160721511,-0.217,77.6,-0.43
KRT75 (keratin 75),SID160721512,1.47,111,1.38
KRT75 (keratin 75),SID160732137,-0.197,78,-0.742
GOLGA8G (golgin A8 family member G),SID160763035,0.678,95.4,0.965
GOLGA8G (golgin A8 family member G),SID160763036,-0.244,77,0.724
GOLGA8G (golgin A8 family member G),SID160763037,-0.76,66.8,-0.63
